Measured values from the supplement of paper PMC12067093, “Discovery and optimisation of a covalent ligand for TRIM25 and its application to targeted protein ubiquitination” (Chemical Science, 2025).
The list shows a part of the results.

By UniProt entry, the sequences of proteins in these tests, tags left out. Where a name states a change or a piece, a line headed by the entry shows the natural chain unless it says otherwise.
UniProt Q96Q05, whole entry, looked up: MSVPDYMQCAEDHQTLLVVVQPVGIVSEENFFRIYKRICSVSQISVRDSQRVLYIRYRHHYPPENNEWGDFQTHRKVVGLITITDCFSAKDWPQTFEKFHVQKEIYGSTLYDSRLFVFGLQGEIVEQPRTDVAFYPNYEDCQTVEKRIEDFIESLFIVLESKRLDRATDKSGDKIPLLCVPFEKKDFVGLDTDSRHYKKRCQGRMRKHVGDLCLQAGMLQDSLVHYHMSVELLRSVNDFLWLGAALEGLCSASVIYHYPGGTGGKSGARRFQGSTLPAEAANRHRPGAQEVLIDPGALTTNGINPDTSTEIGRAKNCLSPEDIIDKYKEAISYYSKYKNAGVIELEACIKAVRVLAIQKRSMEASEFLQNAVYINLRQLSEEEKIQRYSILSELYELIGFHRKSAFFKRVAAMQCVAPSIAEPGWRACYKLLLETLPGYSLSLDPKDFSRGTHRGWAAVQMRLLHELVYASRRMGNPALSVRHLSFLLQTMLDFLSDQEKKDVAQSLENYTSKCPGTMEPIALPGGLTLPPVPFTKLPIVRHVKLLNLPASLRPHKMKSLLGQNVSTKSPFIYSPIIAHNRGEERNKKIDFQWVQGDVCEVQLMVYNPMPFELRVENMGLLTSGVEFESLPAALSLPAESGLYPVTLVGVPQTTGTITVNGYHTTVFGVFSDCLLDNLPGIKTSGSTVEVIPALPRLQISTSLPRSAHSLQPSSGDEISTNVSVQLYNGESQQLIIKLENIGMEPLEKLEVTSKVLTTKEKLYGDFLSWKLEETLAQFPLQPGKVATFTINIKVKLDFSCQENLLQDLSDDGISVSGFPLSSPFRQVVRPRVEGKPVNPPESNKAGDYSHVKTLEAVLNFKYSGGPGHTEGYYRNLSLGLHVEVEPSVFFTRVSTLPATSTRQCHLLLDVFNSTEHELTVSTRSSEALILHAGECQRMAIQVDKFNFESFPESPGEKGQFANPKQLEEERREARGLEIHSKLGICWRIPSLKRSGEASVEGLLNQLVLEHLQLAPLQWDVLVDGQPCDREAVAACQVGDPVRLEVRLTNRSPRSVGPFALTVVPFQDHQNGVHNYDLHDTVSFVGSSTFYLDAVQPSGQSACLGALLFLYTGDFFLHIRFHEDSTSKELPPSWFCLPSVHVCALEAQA
UniProt Q14669: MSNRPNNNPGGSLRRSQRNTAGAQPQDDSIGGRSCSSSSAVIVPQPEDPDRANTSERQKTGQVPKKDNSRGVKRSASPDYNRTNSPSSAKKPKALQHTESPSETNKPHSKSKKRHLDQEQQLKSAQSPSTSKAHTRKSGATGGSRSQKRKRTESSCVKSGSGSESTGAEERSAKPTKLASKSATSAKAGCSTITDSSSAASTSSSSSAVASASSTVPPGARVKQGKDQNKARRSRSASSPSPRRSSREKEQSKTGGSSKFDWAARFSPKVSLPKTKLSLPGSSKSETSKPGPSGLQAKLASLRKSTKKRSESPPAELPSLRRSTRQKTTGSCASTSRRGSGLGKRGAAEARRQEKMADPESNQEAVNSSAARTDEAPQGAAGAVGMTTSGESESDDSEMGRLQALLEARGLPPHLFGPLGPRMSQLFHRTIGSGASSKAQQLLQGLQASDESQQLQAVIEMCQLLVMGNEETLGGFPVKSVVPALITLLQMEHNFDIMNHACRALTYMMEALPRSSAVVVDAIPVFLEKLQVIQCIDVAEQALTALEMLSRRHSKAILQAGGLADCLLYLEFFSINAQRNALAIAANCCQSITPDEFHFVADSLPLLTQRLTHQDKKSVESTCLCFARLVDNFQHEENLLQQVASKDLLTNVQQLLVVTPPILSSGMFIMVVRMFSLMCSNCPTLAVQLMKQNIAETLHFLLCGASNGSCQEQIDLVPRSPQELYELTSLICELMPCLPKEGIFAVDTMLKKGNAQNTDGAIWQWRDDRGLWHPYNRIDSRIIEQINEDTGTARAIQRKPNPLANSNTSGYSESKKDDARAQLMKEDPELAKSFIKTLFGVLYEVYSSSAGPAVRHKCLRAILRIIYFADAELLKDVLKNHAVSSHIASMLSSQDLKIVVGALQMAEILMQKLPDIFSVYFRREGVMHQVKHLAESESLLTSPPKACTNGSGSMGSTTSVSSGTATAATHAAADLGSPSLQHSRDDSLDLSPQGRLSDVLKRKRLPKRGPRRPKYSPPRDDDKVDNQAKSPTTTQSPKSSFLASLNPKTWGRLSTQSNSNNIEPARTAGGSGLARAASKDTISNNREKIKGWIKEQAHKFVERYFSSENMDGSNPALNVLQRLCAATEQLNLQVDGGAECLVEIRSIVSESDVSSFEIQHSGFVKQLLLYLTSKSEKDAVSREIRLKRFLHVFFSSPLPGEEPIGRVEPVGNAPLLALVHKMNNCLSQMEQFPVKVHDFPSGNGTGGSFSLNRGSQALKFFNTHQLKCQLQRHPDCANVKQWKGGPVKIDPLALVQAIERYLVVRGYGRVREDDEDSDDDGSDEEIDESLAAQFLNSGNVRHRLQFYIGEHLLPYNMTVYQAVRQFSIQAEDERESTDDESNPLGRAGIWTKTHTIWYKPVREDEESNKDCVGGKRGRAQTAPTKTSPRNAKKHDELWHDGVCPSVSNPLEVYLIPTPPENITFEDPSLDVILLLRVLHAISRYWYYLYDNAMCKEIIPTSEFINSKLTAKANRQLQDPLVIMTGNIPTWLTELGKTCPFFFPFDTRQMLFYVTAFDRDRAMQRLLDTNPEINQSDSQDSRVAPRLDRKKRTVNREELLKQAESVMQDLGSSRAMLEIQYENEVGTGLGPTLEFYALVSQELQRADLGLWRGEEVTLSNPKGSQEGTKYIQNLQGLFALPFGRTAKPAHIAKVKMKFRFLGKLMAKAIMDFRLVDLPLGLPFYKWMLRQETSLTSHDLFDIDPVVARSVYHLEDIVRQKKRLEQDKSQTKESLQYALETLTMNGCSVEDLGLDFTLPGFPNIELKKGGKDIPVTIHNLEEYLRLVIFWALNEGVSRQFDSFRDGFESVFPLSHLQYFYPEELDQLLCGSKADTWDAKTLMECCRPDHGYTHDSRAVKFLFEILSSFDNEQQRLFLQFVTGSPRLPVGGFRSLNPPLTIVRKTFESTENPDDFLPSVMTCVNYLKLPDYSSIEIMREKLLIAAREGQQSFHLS
UniProt Q7Z2T5: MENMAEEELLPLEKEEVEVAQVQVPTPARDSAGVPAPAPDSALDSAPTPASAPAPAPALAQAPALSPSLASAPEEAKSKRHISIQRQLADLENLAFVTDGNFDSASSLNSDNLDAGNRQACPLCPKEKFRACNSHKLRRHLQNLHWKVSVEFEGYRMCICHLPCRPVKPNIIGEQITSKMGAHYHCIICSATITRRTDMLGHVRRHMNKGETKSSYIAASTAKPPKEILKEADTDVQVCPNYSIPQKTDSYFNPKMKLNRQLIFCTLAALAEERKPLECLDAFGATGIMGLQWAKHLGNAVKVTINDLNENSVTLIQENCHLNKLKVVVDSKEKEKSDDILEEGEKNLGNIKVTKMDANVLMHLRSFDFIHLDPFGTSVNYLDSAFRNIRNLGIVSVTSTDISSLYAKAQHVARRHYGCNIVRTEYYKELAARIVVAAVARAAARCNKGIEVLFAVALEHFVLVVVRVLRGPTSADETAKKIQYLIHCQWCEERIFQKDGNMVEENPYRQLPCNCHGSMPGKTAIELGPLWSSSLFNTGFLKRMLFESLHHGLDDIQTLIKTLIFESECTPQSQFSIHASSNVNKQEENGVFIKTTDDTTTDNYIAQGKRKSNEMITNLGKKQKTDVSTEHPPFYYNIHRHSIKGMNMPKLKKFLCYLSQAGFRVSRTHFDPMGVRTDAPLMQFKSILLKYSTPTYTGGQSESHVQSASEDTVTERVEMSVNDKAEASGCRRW
UniProt P48553, whole entry, looked up: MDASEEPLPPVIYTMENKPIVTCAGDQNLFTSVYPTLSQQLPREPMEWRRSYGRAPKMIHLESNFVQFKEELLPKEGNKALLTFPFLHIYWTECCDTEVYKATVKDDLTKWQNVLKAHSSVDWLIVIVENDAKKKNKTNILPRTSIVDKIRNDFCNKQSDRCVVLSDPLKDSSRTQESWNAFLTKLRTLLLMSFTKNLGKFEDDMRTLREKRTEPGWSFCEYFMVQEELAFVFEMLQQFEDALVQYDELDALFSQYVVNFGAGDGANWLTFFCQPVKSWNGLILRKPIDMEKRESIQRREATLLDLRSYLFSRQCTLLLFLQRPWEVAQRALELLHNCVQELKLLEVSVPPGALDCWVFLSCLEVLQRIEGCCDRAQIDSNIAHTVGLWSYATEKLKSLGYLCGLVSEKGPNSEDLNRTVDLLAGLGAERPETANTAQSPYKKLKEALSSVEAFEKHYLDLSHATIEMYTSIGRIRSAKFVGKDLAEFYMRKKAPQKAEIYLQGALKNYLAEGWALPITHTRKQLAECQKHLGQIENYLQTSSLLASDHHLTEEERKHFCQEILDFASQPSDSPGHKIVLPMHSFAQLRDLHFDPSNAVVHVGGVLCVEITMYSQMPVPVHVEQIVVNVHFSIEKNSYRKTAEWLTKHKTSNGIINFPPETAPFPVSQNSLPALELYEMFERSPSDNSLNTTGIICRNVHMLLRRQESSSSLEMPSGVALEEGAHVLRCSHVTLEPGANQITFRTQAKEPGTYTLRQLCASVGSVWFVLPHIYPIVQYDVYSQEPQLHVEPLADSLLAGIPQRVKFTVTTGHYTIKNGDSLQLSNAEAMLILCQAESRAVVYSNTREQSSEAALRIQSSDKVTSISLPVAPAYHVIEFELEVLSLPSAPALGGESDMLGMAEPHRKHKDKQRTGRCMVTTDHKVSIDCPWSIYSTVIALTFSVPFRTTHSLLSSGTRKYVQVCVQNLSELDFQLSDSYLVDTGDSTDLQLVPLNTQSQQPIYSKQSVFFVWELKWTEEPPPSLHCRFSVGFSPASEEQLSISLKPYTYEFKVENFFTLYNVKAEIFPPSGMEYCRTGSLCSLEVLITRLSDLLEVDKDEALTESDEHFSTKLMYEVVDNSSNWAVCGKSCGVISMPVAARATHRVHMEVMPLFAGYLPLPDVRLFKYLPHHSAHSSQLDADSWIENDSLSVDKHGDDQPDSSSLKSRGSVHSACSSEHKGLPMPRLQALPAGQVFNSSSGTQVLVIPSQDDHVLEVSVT
UniProt Q9UPN9: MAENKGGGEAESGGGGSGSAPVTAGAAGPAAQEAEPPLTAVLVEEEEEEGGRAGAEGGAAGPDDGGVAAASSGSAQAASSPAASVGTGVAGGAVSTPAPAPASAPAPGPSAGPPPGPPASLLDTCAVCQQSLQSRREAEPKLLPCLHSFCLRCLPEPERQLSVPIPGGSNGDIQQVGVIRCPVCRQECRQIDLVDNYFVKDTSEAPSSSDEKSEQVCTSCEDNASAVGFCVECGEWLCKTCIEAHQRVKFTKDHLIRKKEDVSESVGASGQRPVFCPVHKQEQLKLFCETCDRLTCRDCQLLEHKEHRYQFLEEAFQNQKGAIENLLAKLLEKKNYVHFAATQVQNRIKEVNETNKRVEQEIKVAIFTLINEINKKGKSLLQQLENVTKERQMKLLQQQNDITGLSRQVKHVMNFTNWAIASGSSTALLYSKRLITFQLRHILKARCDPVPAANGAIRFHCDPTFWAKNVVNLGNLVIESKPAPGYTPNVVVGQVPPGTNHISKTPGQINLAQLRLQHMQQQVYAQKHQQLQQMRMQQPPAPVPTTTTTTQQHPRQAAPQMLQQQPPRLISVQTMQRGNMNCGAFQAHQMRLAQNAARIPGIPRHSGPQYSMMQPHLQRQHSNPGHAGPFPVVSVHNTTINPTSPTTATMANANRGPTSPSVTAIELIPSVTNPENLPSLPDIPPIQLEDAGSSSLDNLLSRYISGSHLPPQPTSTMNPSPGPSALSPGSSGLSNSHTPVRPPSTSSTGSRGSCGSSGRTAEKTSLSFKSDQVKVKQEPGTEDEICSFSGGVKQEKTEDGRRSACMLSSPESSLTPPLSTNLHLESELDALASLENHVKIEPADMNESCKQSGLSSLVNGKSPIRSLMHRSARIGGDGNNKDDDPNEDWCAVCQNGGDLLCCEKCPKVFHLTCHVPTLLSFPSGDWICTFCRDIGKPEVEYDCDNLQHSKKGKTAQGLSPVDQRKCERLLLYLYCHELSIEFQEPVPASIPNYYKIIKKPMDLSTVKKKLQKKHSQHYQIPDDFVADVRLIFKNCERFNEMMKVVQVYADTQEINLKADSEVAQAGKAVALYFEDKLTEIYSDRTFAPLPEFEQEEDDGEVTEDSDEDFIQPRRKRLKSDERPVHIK
UniProt O43715: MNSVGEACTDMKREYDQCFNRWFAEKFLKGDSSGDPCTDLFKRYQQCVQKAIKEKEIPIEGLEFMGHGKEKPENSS
UniProt P60174, whole entry, looked up: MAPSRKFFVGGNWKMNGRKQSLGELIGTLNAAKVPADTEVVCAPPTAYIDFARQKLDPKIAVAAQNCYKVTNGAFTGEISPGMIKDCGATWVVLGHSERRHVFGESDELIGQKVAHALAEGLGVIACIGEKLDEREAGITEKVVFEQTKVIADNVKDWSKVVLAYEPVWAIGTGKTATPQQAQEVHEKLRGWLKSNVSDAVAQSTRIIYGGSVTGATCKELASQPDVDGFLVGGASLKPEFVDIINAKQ

Compound: CC1Cc2ccccc2N1C(=O)C1CCCN(C1)C(=O)CCl (mixture of isomers) [TRIM25 ligand 11 (diastereomer mixture)]
Assay: probe-labelled cysteine peptide fold change vs DMSO (competition) (log2 fold change); higher = less target engagement (more negative = stronger competition)
Details: THP-1, incubation time: 4 h
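Note: competitive chemoproteomic profiling in live THP-1 cells with an iodoacetamide desthiobiotin (IA-DTB) probe, comparing probe-labelled peptide intensities in compound-treated cells against DMSO-treated controls.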

| Target | probe-labelled cysteine peptide fold change (10 µM) | probe-labelled cysteine peptide fold change (50 µM) |
| --- | --- | --- |
| TRAPPC11_Q7Z392_117_QSECATR (UniProt Q7Z392) | 0.0194 | 0.0465 |
| TRAF2_Q12933_303_VAMTAEACSR (UniProt Q12933) | -0.0475 | 0.0504 |
| TRIM36_Q9NQ86_499_GSICSPCSR (UniProt Q9NQ86) | -0.0502 | -0.141 |
| TPP2_P29144_209_ACIDSNEDGDLSK (UniProt P29144) | 0.0955 | -0.018 |
| TRAPPC9_Q96Q05_1035_EAVAACQVGDPVR (UniProt Q96Q05) | 0.253 | -0.0879 |
| TRIOBP_Q9H2D6_2271_GFIASQGMGNGCGR (UniProt Q9H2D6) | -0.0571 | -0.279 |
| TRAPPC8_Q9Y2L5_339_KGNTGIIHGACLTLTDHDR (UniProt Q9Y2L5) | -0.0573 | 0.0941 |
| TRIP12_Q14669_156_TESSCVK (UniProt Q14669) | -0.1 | -0.111 |
| TRIM25_Q14258_506_FTYCSQVLGLHCYK (UniProt Q14258) | 0.127 | -0.287 |
| TPX2_Q9ULW0_145_CATPVIIDEILPSKK (UniProt Q9ULW0) | -0.142 | -0.299 |
| TRIM25_Q14258_498_FTYCSQVLGLHCYK (UniProt Q14258) | -0.133 | -0.312 |
| TRMT1L_Q7Z2T5_320_VTINDLNENSVTLIQENCHLNK (UniProt Q7Z2T5) | -0.0172 | -0.0306 |
| TRAPPC10_P48553_1025_WTEEPPPSLHCR (UniProt P48553) | 0.197 | 0.0441 |
| TRIP12_Q14669_502_SVVPALITLLQMEHNFDIMNHACR (UniProt Q14669) | 0.00752 | -0.0762 |
| TRAFD1_O14545_267_AVCEADQSHGGPR (UniProt O14545) | -0.0698 | -0.149 |
| TRAPPC10_P48553_162_CVVLSDPLK (UniProt P48553) | 0.0105 | 0.0359 |
| TRMT1L_Q7Z2T5_491_KIQYLIHCQWCEER (UniProt Q7Z2T5) | 0.07 | 0.234 |
| TRIM14_Q14142_151_EQADSCR (UniProt Q14142) | -0.0226 | 0.0484 |
| TRIM33_Q9UPN9_276_KKEDVSESVGASGQRPVFCPVHK (UniProt Q9UPN9) | -0.0929 | -0.0137 |
| TRAPPC9_Q96Q05_179_IPLLCVPFEK (UniProt Q96Q05) | 0.174 | 0.119 |
| TRMT10C_Q7L0Y3_123_TLMECVSNTAK (UniProt Q7L0Y3) | -0.105 | 0.000645 |

| Target | probe-labelled cysteine peptide fold change (10 µM) | probe-labelled cysteine peptide fold change (50 µM) |
| --- | --- | --- |
| TREX1_Q9NSU2_35_VTELCLLAVHR (UniProt Q9NSU2) | -0.0721 | 0.0463 |
| TRIM33_Q9UPN9_241_TCIEAHQR (UniProt Q9UPN9) | -0.0332 | 0.196 |
| TRIAP1_O43715_37_GDSSGDPCTDLFK (UniProt O43715) | -0.13 | 0.0603 |
| TRIM28_Q13263_666+669_VCQKPGDLVMCNQCEFCFHLDCHLPALQDVPGEEWSCSLCHVLPDLK (UniProt Q13263) | 0.0584 | -0.127 |
| TPI1_P60174_164_VAHALAEGLGVIACIGEKLDEREAGITEK (UniProt P60174) | -0.262 | -0.0167 |
| TRIM25_Q14258_157_CSQHNR (UniProt Q14258) | 0.411 | 0.441 |
| TRIP12_Q14669_35_SCSSSSAVIVPQPEDPDRANTSER (UniProt Q14669) | -0.0736 | -0.397 |
| TRA2B_P62995_119_ANPDPNCCLGVFGLSLYTTER (UniProt P62995) | 0.089 | 0.215 |
| TRIP6_Q15654_476_IQELSATVTTDC (UniProt Q15654) | -0.0843 | 0.217 |
| TRAPPC4_Q9Y296_195_CELFDQNLK (UniProt Q9Y296) | 0.157 | 0.214 |
| TRMT10A_Q8TBZ6_107_LIIDCSFDHLMVLK (UniProt Q8TBZ6) | -0.0159 | 0.0514 |
| TPI1_P60174_255_IIYGGSVTGATCK (UniProt P60174) | 0.0956 | -0.167 |
| TRIM25_Q14258_119_TCLVCMASFCQEHLQPHFDSPAFQDHPLQPPVR (UniProt Q14258) | 0.521 | 0.461 |
| TRIM25_Q14258_176_EFFCPEHSECICHICLVEHK (UniProt Q14258) | 0.103 | 0.153 |
| TRIM25_Q14258_70_NTVLCNVVEQFLQADLAR (UniProt Q14258) | -0.104 | -0.142 |
| TRAPPC2L_Q9UL33_4_AVCIAVIAK (UniProt Q9UL33) | -0.164 | -0.222 |
| TRIP12_Q14669_332_TTGSCASTSR (UniProt Q14669) | -0.0223 | -0.118 |
| TRIM33_Q9UPN9_150_LLPCLHSFCLR (UniProt Q9UPN9) | -0.268 | -0.141 |
| TREX1_Q9NSU2_208_LYGQSPPDSHTAEGDVLALLSICQWRPQALLR (UniProt Q9NSU2) | 0.0866 | 0.304 |
| TRIM33_Q9UPN9_786_QEPGTEDEICSFSGGVK (UniProt Q9UPN9) | 0.15 | -0.0533 |
| TRERF1_Q96PN7_876_CHPLANYHYAGSDK (UniProt Q96PN7) | -0.0269 | -0.124 |
